Reference: the supplement of paper PMC10849652
The list shows a part of the results.

Protein sequences, listed by entry. Tags and fused reporters are not part of them. Lines headed by an entry give the natural chain unless they say otherwise; changes in a name come on top.
UniProt Q499Z4: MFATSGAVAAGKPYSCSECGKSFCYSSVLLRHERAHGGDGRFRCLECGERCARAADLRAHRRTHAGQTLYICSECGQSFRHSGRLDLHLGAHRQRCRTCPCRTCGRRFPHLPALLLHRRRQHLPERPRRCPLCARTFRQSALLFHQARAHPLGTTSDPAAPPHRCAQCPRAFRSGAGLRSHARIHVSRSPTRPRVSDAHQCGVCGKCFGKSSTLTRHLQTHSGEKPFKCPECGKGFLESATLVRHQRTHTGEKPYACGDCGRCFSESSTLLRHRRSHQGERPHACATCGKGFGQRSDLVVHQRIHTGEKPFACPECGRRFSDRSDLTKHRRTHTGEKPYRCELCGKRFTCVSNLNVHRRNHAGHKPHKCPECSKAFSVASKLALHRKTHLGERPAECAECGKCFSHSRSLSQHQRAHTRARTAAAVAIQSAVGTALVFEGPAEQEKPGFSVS
UniProt Q96NB3: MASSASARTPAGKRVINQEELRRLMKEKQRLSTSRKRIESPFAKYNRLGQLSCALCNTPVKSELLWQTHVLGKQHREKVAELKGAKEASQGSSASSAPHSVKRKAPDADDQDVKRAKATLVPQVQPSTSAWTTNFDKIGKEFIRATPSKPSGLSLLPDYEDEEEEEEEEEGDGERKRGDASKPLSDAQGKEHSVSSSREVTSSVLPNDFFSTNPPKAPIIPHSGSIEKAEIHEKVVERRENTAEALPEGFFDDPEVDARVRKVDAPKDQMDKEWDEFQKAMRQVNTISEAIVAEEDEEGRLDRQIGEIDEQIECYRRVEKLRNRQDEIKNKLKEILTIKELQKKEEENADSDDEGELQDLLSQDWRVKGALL
UniProt Q9H5H4: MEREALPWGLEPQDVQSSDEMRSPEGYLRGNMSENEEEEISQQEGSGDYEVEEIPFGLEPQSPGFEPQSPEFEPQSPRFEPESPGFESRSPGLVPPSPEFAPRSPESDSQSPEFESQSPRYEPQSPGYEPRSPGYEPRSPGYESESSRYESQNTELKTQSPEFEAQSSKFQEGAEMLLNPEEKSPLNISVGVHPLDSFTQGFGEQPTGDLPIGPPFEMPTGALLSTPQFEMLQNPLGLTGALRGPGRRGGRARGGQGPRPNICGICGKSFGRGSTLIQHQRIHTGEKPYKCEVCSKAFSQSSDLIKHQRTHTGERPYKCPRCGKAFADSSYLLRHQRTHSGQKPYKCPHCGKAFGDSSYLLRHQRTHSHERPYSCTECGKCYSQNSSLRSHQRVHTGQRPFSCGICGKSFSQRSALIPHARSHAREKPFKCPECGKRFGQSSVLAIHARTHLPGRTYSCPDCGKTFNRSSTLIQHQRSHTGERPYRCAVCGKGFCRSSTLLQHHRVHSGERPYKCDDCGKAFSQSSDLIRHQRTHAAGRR
UniProt P17028: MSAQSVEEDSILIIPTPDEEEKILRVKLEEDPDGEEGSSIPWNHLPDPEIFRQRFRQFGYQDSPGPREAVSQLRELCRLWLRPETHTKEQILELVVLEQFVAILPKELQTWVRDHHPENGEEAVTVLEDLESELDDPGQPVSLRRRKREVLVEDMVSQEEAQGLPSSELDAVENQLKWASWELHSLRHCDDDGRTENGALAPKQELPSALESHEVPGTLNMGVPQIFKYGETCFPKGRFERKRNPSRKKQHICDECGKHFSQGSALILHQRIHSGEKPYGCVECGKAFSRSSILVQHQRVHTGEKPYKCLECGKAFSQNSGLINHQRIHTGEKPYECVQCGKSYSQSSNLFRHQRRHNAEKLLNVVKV
UniProt Q9H900: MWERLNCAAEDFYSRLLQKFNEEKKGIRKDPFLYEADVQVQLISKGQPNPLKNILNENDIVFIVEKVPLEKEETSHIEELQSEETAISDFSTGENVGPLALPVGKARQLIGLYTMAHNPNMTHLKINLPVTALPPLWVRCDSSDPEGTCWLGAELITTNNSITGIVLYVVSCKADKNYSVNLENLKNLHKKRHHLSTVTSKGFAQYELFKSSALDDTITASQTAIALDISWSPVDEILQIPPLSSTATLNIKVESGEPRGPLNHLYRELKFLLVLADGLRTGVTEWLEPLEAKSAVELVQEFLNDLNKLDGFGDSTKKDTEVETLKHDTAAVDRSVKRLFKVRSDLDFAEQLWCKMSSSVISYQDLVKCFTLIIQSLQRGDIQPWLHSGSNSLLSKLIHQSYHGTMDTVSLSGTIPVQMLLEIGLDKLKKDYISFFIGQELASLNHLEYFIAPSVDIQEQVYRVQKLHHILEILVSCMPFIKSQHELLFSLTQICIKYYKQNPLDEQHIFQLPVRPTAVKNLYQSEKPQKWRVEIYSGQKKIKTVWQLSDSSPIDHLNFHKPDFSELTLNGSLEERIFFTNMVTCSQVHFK
UniProt Q9P2E3: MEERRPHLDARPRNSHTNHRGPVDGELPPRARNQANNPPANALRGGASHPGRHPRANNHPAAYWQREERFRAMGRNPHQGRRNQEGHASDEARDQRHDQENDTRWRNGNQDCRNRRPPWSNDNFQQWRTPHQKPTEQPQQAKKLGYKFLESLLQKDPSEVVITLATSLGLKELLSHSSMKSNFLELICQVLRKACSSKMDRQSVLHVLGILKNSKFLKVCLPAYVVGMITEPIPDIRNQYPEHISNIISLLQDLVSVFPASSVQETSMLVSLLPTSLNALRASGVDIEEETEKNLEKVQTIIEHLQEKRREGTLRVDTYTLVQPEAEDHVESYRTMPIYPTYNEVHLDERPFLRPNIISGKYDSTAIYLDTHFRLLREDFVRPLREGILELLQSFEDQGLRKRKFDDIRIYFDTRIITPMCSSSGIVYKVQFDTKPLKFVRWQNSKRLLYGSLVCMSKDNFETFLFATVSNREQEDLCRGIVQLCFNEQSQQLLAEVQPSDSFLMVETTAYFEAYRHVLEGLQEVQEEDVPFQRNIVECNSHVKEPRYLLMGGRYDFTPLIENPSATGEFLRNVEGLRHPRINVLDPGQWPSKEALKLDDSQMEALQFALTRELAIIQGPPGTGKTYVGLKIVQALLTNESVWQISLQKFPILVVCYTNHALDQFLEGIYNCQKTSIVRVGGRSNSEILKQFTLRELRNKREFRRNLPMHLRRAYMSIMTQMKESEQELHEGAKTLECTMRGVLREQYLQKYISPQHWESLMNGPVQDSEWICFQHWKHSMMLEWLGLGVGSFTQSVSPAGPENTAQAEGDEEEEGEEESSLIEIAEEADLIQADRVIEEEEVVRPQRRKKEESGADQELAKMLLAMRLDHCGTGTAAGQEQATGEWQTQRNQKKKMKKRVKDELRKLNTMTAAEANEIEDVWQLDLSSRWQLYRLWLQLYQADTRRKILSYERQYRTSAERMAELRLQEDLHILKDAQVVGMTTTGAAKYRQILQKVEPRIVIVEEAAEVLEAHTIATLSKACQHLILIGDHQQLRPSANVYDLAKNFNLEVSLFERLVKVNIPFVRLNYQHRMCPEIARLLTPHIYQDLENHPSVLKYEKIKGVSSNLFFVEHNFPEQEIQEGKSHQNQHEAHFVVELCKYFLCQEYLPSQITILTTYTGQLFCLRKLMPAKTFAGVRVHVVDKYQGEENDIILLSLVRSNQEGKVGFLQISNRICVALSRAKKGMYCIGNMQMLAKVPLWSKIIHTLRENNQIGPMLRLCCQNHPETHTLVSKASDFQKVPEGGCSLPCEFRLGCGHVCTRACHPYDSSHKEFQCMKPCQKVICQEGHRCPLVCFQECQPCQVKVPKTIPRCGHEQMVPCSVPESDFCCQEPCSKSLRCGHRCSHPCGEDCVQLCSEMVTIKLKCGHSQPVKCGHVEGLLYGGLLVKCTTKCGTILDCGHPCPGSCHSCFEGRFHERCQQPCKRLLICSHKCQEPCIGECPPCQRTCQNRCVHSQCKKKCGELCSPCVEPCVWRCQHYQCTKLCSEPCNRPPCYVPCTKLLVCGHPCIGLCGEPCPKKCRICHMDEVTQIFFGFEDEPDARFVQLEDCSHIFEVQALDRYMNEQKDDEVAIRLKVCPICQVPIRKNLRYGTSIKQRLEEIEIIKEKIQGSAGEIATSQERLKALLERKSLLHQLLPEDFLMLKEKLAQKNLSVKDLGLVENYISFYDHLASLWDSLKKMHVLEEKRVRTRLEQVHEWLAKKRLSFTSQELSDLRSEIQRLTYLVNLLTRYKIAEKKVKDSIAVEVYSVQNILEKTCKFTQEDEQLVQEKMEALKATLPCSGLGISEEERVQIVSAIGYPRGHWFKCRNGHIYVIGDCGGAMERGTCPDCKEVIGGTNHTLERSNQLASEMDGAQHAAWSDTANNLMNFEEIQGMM
UniProt Q8NAF0: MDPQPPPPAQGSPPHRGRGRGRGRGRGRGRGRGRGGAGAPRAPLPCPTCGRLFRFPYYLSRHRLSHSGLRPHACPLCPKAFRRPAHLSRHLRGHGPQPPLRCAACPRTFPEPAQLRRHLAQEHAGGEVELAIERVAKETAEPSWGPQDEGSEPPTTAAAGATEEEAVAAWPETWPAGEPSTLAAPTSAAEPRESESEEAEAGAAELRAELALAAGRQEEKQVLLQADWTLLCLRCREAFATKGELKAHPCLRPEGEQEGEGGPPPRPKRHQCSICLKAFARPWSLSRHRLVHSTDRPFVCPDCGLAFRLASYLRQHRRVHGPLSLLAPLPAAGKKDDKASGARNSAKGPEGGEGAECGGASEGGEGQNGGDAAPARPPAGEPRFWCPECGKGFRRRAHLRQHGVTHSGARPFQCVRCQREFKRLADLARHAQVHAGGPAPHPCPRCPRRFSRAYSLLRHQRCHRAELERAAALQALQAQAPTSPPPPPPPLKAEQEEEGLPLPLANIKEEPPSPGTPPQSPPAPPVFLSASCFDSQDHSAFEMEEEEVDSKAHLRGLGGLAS
UniProt Q9NRM2: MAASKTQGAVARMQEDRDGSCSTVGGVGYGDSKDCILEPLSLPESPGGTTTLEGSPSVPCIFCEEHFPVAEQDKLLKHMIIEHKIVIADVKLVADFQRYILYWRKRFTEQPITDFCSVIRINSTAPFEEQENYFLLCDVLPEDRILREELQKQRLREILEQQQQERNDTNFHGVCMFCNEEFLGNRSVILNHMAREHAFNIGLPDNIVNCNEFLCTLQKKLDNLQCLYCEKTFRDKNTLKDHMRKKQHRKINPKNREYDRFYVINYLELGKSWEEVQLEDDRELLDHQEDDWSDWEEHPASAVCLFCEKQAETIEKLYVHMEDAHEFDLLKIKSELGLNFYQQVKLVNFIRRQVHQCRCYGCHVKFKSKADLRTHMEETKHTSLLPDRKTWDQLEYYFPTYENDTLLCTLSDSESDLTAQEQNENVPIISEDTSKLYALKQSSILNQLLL
UniProt Q96ME7: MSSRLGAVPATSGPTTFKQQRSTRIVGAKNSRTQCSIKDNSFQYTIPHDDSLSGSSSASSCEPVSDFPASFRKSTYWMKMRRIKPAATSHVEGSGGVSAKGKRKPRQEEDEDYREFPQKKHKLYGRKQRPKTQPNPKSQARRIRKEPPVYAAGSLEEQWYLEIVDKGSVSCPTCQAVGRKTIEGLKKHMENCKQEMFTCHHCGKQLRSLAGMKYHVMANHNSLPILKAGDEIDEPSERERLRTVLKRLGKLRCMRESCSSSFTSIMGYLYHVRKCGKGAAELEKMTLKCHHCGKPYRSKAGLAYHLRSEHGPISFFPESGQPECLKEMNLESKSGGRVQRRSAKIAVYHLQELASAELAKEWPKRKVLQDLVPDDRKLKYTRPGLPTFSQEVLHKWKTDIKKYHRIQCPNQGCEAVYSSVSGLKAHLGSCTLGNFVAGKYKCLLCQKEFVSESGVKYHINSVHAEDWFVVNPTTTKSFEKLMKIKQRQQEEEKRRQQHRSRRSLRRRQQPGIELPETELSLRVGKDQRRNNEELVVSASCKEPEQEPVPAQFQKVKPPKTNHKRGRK
UniProt Q9C0D3: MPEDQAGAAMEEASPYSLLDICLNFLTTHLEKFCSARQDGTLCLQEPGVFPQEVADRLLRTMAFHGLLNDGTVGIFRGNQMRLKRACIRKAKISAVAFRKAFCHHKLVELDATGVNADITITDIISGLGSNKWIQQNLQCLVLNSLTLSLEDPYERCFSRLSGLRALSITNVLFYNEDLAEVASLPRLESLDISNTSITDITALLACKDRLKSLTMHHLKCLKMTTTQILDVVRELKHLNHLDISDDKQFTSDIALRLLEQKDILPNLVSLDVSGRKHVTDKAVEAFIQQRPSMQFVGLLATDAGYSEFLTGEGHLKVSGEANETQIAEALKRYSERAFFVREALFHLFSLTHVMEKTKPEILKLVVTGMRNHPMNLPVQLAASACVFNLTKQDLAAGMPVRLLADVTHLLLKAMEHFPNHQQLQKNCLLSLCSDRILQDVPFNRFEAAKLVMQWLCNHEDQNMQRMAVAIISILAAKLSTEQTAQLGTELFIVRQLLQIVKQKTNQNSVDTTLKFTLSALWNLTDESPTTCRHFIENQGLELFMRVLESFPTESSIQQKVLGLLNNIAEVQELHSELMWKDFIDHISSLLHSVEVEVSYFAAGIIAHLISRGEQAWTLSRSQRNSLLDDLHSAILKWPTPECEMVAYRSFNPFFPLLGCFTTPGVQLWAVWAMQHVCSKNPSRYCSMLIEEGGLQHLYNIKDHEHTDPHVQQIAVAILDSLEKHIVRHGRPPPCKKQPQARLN

Assays:
Assay in all cases: log2 fold change, soluble protein after heating vs DMSO (PISA); higher = thermal stabilisation; K562 lysate, 10 uM; active = over 0.2 and 3.5 SD of the protein, either way, in both replicates (recomputed)
vemurafenib = compound: CCCS(=O)(=O)Nc1ccc(F)c(C(=O)c2c[nH]c3ncc(-c4ccc(Cl)cc4)cc23)c1F [vemurafenib]
Summary of the method: (§1)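 A 30 min treatment with 10 μM compound was applied to crude K562 extract at 1 mg/mL protein in PBS pH 7.4 with 1 mM MgCl2. Heating for 3 min spanned 48°C-58°C, after which aliquots were pooled, adjusted to 0.5% NP-40 at 4°C and spun at 21,000xg for 90 min. TMTpro 16plex LC-MS/MS of the supernatant, with channel sums equalised, gave values recorded as log-two fold change in thermal stability against solvent controls, from duplicates.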

[1] = compound: CCCS(=O)(=O)Nc1ccc(F)c(C(=O)c2c[nH]c3ncc(Cl)cc23)c1F
Summary of the method: as §1

barasertib = compound: CCN(CCCOc1ccc2c(Nc3cc(CC(=O)Nc4cccc(F)c4)[nH]n3)ncnc2c1)CCOP(=O)(O)O [barasertib]
Summary of the method: as §1

[2] = compound: CC[C@@H]1C(=O)N(C)c2cnc(Nc3ccc(C(=O)NC4CCN(C)CC4)cc3OC)nc2N1C1CCCC1
Summary of the method: as §1

volasertib = compound: CC[C@@H]1C(=O)N(C)c2cnc(Nc3ccc(C(=O)N[C@H]4CC[C@H](N5CCN(CC6CC6)CC5)CC4)cc3OC)nc2N1C(C)C [volasertib]
Summary of the method: as §1

[3] = compound: CCn1c(C(=O)N(C2CC2)C2CC2)cc2c3c(ncn3C)c(Nc3cc(C)n(C)n3)nc21
Summary of the method: as §1

[4] = compound: CCn1cc(-c2ccnc3[nH]c(-c4cccc(CN(C)C)c4)cc23)c(-c2ccc(NC(=O)N(C)C)cc2)n1
Summary of the method: as §1

[5] = compound: CN1CCC(CNc2ccc3ncc(-c4cccc(OC(F)(F)F)c4)n3n2)CC1
Summary of the method: as §1

saracatinib = compound: CN1CCN(CCOc2cc(OC3CCOCC3)c3c(Nc4c(Cl)ccc5c4OCO5)ncnc3c2)CC1 [saracatinib]
Summary of the method: as §1

sotrastaurin = compound: CN1CCN(c2nc(C3=C(c4c[nH]c5ccccc45)C(=O)NC3=O)c3ccccc3n2)CC1 [sotrastaurin]
Summary of the method: as §1

alvocidib = compound: CN1CC[C@H](c2c(O)cc(O)c3c(=O)cc(-c4ccccc4Cl)oc23)[C@H](O)C1 [alvocidib]
Summary of the method: as §1

Tubastatin A = compound: CN1CCc2c(c3ccccc3n2Cc2ccc(C(=O)NO)cc2)C1 [Tubastatin A]
Summary of the method: as §1

[6] = compound: CNC(=O)C1=CC=CC=C1NC2=NC(=NC=C2Cl)NC3=C(C=C(C=C3)N4CCOCC4)OC
Summary of the method: as §1

defactinib = compound: CNC(=O)c1ccc(Nc2ncc(C(F)(F)F)c(NCc3nccnc3N(C)S(C)(=O)=O)n2)cc1 [defactinib]
Summary of the method: as §1

[7] = compound: CNc1nc(-c2ccc3c(N)n[nH]c3c2)cc(N2C[C@@H](C(=O)NC3CCCCC3)CC[C@H]2C)n1
Summary of the method: as §1

encorafenib = compound: COC(=O)N[C@@H](C)CNc1nccc(-c2cn(C(C)C)nc2-c2cc(Cl)cc(NS(C)(=O)=O)c2F)n1 [encorafenib]
Summary of the method: as §1

[8] = compound: COC(=O)[C@H](CCSC)NC(=O)C1=C(C=C(C=C1)NC[C@H](CS)N)C2=CC=CC=C2
Summary of the method: as §1

alisertib = compound: COc1cc(Nc2ncc3c(n2)-c2ccc(Cl)cc2C(c2c(F)cccc2OC)=NC3)ccc1C(=O)O [alisertib]
Summary of the method: as §1

[9] = compound: COc1cc2nc(-c3cc(F)ccc3O)nc(N[C@@H]3CNC[C@H]3C(C)(C)O)c2cc1OC
Summary of the method: as §1

gefitinib = compound: COc1cc2ncnc(Nc3ccc(F)c(Cl)c3)c2cc1OCCCN1CCOCC1 [gefitinib]
Summary of the method: as §1

Measured: log2 fold change

ZNF672 (UniProt Q499Z4)
inactive: vemurafenib 0.139 | [1] 0.05 | barasertib 0.004 | [2] 0.056 | volasertib 0.003 | [3] -0.006 | [4] 0.012 | [5] -0.248 | saracatinib 0.096 | sotrastaurin 0.024 | alvocidib 0.1 | Tubastatin A 0.007 | [6] 0.057 | defactinib -0.07 | [7] -0.083 | encorafenib -0.048 | [8] 0.148 | alisertib -0.024 | [9] -0.021 | gefitinib 0.008

ZNF830 (UniProt Q96NB3)
inactive: vemurafenib 0.038 | [1] 0.007 | barasertib 0.009 | [2] 0.094 | volasertib 0.001 | [3] -0.023 | [4] 0.042 | [5] 0.004 | saracatinib 0.07 | sotrastaurin 0.007 | alvocidib -0.012 | Tubastatin A 0.071 | [6] 0.039 | defactinib 0.047 | [7] 0.046 | encorafenib 0.008 | [8] -0.04 | alisertib -0.063 | [9] -0.013 | gefitinib -0.017

ZNF768 (UniProt Q9H5H4)
inactive: vemurafenib -0.065 | [1] 0.011 | barasertib -0.023 | [2] 0.036 | volasertib -0.028 | [3] -0.001 | [4] -0.071 | [5] -0.01 | saracatinib -0.024 | sotrastaurin -0.062 | alvocidib -0.13 | Tubastatin A -0.03 | [6] -0.007 | defactinib 0.068 | [7] -0.019 | encorafenib -0.021 | [8] 0 | alisertib -0.01 | [9] -0.016 | gefitinib 0.028

ZNF24 (UniProt P17028)
inactive: vemurafenib -0.083 | [1] 0.03 | barasertib -0.037 | [2] 0.015 | volasertib -0.048 | [3] 0.003 | [4] 0.081 | [5] -0.025 | saracatinib -0.017 | sotrastaurin -0.022 | alvocidib 0.041 | Tubastatin A -0.068 | [6] 0.026 | defactinib 0.104 | [7] 0.026 | encorafenib 0.035 | [8] -0.041 | alisertib -0.046 | [9] 0.015 | gefitinib 0.089

ZYX (UniProt Q15942)
inactive: vemurafenib 0.013 | [1] -0.006 | barasertib -0.01 | [2] 0.033 | volasertib 0.041 | [3] -0.022 | [4] -0.034 | [5] 0.033 | saracatinib -0.002 | sotrastaurin -0.02 | alvocidib -0.01 | Tubastatin A 0.047 | [6] 0.008 | defactinib -0.014 | [7] 0.031 | encorafenib -0.021 | [8] -0.075 | alisertib -0.021 | [9] 0.003 | gefitinib 0.012

ZZEF1 (UniProt O43149)
inactive: vemurafenib -0.013 | [1] 0.012 | barasertib 0.051 | [2] -0.015 | volasertib -0.028 | [3] -0.006 | [4] -0.116 | [5] 0.029 | saracatinib 0.036 | sotrastaurin 0.01 | alvocidib 0.005 | Tubastatin A -0.025 | [6] 0.017 | defactinib -0.022 | [7] 0.017 | encorafenib 0.022 | [8] 0.065 | alisertib -0.022 | [9] 0.007 | gefitinib 0.008

ZWILCH (UniProt Q9H900)
inactive: vemurafenib -0.011 | [1] -0.005 | barasertib -0.029 | [2] -0.031 | volasertib -0.044 | [3] 0.049 | [4] -0.063 | [5] -0.007 | saracatinib 0.01 | sotrastaurin 0.039 | alvocidib 0.002 | Tubastatin A -0.016 | [6] 0.039 | defactinib 0.025 | [7] -0.049 | encorafenib 0.011 | [8] -0.007 | alisertib 0.013 | [9] 0.007 | gefitinib -0.042

ZNFX1 (UniProt Q9P2E3)
inactive: vemurafenib 0.067 | [1] 0.073 | barasertib -0.084 | [2] -0.184 | volasertib -0.032 | [3] 0.032 | [4] 0.052 | [5] 0.012 | saracatinib -0.076 | sotrastaurin -0.064 | alvocidib -0.053 | Tubastatin A -0.071 | [6] -0.025 | defactinib -0.057 | [7] -0.112 | encorafenib -0.109 | [8] -0.055 | alisertib 0.002 | [9] -0.022 | gefitinib -0.016

ZNF579 (UniProt Q8NAF0)
inactive: vemurafenib 0.021 | [1] 0.115 | barasertib -0.03 | [2] 0.042 | volasertib -0.027 | [3] 0.011 | [4] 0.037 | [5] -0.041 | saracatinib 0.081 | sotrastaurin -0.048 | alvocidib -0.044 | Tubastatin A 0.004 | [6] 0.022 | defactinib 0.202 | [7] 0.299 | encorafenib 0.051 | [8] 0.104 | alisertib -0.046 | [9] 0.065 | gefitinib -0.218

ZNF131 (UniProt P52739)
inactive: vemurafenib -0.037 | [1] -0.014 | barasertib -0.047 | [2] 0.015 | volasertib -0.113 | [3] -0.034 | [4] -0.044 | [5] 0.054 | saracatinib 0.02 | sotrastaurin 0.03 | alvocidib 0.004 | Tubastatin A 0.004 | [6] -0.008 | defactinib -0.004 | [7] 0.009 | encorafenib 0.054 | [8] 0.002 | alisertib 0.059 | [9] 0.02 | gefitinib -0.034

ZMYM2 (UniProt Q9UBW7)
inactive: vemurafenib 0.004 | [1] 0.101 | barasertib -0.016 | [2] -0.034 | volasertib -0.253 | [3] -0.119 | [4] 0.025 | [5] -0.196 | saracatinib 0.018 | sotrastaurin -0.008 | alvocidib 0.076 | Tubastatin A -0.155 | [6] 0.003 | defactinib 0.121 | [7] -0.021 | encorafenib -0.214 | [8] -0.018 | alisertib -0.077 | [9] 0.087 | gefitinib 0.06

2 consecutive entries from above, quoted:
ZNF579 (UniProt Q8NAF0)
inactive: vemurafenib 0.021 | [1] 0.115 | barasertib -0.03 | [2] 0.042 | volasertib -0.027 | [3] 0.011 | [4] 0.037 | [5] -0.041 | saracatinib 0.081 | sotrastaurin -0.048 | alvocidib -0.044 | Tubastatin A 0.004 | [6] 0.022 | defactinib 0.202 | [7] 0.299 | encorafenib 0.051 | [8] 0.104 | alisertib -0.046 | [9] 0.065 | gefitinib -0.218

ZNF131 (UniProt P52739)
inactive: vemurafenib -0.037 | [1] -0.014 | barasertib -0.047 | [2] 0.015 | volasertib -0.113 | [3] -0.034 | [4] -0.044 | [5] 0.054 | saracatinib 0.02 | sotrastaurin 0.03 | alvocidib 0.004 | Tubastatin A 0.004 | [6] -0.008 | defactinib -0.004 | [7] 0.009 | encorafenib 0.054 | [8] 0.002 | alisertib 0.059 | [9] 0.02 | gefitinib -0.034

Later entries:

ZMIZ1 (UniProt Q9ULJ6)
inactive: vemurafenib -0.014 | [1] 0.002 | barasertib 0.044 | [2] 0.01 | volasertib 0.004 | [3] -0.004 | [4] -0.198 | [5] 0.086 | saracatinib -0.011 | sotrastaurin 0.016 | alvocidib -0.079 | Tubastatin A -0.006 | [6] -0.001 | defactinib 0 | [7] 0.048 | encorafenib 0.057 | [8] -0.023 | alisertib -0.067 | [9] -0.009 | gefitinib 0.002

ZNF277 (UniProt Q9NRM2)
inactive: vemurafenib -0.014 | [1] -0.041 | barasertib 0.064 | [2] -0.136 | volasertib -0.02 | [3] -0.007 | [4] 0.007 | [5] 0.05 | saracatinib 0.029 | sotrastaurin 0.003 | alvocidib -0.04 | Tubastatin A -0.099 | [6] -0.002 | defactinib 0.014 | [7] -0.02 | encorafenib 0.053 | [8] 0.136 | alisertib 0.036 | [9] 0.005 | gefitinib -0.035

ZNF512 (UniProt Q96ME7)
inactive: vemurafenib -0.097 | [1] 0.008 | barasertib 0.081 | [2] -0.086 | volasertib -0.054 | [3] 0.013 | [4] -0.107 | [5] -0.056 | saracatinib 0.069 | sotrastaurin 0.009 | alvocidib 0.042 | Tubastatin A -0.142 | [6] -0.005 | defactinib 0.012 | [7] 0.03 | encorafenib 0.046 | [8] 0.051 | alisertib -0.009 | [9] 0.017 | gefitinib -0.015

ZYG11B (UniProt Q9C0D3)
inactive: vemurafenib 0.005 | [1] 0 | barasertib 0.019 | [2] 0.022 | volasertib -0.032 | [3] -0.003 | [4] -0.088 | [5] 0.062 | saracatinib 0.023 | sotrastaurin -0.01 | alvocidib -0.008 | Tubastatin A 0.025 | [6] 0.023 | defactinib 0.016 | [7] -0.009 | encorafenib 0.001 | [8] -0.037 | alisertib 0.011 | [9] 0.017 | gefitinib 0.019

ZNHIT6 (UniProt Q9NWK9)
inactive: vemurafenib -0.001 | [1] 0.035 | barasertib 0.009 | [2] 0.023 | volasertib -0.016 | [3] 0.05 | [4] 0.089 | [5] -0.071 | saracatinib -0.029 | sotrastaurin -0.005 | alvocidib 0.004 | Tubastatin A -0.046 | [6] 0.034 | defactinib -0.04 | [7] 0.086 | encorafenib 0.037 | [8] 0.118 | alisertib -0.021 | [9] -0.022 | gefitinib 0.008
